Measurements reported in the supplement of paper PMC10849652.
The other results are listed elsewhere or left out.

Sequences of proteins named here, by UniProt entry; tags and fusion partners are left off. A change or cut given only in a name is not applied to a line headed by its entry.
UniProt A8K2U0: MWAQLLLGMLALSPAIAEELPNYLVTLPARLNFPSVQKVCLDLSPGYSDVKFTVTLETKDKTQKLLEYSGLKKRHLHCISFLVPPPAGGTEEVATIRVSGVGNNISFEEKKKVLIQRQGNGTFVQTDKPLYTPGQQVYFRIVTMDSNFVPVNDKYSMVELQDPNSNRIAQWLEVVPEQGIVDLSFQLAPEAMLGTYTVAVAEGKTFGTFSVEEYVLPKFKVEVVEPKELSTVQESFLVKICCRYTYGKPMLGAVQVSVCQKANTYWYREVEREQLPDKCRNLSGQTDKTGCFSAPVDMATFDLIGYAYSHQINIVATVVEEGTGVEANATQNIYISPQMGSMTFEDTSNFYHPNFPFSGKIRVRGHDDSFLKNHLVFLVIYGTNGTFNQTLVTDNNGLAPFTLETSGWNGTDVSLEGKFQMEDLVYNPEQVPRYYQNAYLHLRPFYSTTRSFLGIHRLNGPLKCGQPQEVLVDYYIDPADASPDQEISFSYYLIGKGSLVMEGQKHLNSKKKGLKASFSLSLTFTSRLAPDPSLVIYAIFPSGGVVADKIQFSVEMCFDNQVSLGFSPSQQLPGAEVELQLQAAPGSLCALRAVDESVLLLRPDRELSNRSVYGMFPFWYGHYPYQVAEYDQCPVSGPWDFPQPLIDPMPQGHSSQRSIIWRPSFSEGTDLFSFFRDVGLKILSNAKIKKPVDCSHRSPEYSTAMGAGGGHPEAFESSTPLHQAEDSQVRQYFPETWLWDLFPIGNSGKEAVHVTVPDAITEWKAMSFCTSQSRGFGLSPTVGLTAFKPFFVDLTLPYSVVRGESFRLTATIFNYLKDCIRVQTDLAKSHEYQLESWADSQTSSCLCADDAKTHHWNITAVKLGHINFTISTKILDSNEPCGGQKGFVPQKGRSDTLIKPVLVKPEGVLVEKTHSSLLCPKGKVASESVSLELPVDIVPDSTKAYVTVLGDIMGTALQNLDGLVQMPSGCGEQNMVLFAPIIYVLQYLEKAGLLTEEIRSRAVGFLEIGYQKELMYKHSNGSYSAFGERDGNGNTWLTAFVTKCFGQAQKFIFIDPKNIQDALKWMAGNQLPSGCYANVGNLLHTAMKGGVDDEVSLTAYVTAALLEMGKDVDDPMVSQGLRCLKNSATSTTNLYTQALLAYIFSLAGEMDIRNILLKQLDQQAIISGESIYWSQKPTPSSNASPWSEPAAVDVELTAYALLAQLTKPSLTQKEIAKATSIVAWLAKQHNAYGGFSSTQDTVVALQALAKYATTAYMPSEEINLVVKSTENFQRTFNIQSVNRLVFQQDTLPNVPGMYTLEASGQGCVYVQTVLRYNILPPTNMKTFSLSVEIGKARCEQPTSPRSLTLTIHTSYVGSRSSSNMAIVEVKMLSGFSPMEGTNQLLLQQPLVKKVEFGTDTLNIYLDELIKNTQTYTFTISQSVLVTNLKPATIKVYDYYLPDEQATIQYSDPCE
UniProt Q96QU6: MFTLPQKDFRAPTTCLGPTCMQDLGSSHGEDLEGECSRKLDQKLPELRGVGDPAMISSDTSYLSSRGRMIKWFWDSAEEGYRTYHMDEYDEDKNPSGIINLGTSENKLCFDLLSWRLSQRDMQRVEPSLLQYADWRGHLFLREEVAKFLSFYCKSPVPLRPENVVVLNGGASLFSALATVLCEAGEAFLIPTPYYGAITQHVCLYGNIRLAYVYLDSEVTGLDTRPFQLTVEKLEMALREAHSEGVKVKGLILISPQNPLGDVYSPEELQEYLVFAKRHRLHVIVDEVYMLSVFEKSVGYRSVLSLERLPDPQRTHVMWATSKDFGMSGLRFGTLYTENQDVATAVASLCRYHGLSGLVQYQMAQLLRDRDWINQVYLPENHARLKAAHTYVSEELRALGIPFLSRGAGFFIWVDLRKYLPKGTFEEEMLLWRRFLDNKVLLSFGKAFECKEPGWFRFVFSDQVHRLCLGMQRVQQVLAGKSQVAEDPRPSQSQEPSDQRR
UniProt Q86TW2: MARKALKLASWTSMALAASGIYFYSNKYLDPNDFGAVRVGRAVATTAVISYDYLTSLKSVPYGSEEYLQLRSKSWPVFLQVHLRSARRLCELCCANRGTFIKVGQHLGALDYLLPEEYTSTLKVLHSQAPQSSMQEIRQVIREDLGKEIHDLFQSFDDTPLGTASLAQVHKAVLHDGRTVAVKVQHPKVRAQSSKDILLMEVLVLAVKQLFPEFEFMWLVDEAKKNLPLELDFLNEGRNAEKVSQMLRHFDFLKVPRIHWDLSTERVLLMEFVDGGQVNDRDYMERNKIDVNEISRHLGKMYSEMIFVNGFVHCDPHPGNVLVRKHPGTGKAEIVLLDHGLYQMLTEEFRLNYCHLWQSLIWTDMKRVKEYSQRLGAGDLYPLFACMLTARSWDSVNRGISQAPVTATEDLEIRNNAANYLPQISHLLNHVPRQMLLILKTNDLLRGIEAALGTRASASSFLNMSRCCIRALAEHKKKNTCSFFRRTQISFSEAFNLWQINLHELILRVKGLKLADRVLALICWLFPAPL
UniProt O95342, whole entry, looked up: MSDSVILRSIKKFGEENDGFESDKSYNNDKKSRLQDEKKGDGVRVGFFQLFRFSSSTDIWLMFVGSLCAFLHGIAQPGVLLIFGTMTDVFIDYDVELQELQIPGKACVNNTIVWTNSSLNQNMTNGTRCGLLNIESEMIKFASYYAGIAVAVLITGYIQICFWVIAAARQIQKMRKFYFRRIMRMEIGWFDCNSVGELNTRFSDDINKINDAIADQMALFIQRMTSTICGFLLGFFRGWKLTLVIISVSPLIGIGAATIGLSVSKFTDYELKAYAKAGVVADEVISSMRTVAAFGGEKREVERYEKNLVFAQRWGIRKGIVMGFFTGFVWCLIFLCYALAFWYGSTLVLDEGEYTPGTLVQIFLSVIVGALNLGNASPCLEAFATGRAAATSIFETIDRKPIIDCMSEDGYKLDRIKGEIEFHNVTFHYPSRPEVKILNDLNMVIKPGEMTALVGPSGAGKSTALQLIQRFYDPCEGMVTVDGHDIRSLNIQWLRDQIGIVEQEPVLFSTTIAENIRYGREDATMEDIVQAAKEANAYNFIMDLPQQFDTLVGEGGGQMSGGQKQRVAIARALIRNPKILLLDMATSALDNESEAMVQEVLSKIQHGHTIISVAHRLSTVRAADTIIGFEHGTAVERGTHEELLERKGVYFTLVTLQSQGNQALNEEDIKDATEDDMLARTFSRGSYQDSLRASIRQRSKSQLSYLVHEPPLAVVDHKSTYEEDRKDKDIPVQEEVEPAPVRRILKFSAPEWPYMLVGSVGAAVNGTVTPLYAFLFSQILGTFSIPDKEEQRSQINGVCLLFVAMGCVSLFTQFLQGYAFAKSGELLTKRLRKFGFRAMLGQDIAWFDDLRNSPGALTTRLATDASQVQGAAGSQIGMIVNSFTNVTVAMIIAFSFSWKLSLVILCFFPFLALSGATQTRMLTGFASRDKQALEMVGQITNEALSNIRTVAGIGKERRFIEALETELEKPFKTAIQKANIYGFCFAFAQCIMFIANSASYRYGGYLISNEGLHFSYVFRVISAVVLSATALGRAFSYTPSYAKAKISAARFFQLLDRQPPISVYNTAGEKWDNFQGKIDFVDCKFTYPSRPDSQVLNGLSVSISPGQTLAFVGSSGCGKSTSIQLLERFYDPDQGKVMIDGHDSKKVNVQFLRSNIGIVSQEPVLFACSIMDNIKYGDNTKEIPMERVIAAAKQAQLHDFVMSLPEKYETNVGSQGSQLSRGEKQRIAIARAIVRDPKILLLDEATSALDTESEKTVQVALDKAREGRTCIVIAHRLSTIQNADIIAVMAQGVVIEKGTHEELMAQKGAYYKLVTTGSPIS
UniProt Q8WTS1: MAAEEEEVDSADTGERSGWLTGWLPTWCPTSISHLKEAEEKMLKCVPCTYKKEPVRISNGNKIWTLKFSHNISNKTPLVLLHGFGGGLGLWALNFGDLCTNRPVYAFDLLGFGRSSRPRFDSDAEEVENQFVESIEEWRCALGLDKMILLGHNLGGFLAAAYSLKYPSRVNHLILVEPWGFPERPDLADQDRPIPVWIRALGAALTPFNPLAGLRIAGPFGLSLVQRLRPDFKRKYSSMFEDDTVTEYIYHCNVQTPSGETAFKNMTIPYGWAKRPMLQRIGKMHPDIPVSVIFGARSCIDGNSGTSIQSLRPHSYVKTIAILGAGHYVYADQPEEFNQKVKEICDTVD
UniProt Q9BV23: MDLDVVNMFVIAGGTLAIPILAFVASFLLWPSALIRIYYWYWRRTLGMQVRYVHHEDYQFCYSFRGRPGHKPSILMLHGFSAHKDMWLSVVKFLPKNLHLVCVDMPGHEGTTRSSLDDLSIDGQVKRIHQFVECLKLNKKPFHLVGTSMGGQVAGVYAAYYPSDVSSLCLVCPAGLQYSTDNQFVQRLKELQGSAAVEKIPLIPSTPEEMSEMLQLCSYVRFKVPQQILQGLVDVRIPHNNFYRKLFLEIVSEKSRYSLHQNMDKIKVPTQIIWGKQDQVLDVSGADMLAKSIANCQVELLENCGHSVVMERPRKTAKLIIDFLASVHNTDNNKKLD
UniProt P14621: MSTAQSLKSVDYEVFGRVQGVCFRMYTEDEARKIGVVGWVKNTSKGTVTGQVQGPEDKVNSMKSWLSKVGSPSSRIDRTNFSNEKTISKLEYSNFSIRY
UniProt Q9NX38: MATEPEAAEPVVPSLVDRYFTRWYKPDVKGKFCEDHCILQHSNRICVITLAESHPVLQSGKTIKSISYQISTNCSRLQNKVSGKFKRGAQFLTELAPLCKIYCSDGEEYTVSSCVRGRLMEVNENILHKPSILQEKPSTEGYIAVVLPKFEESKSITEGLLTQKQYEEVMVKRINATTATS
UniProt O94911: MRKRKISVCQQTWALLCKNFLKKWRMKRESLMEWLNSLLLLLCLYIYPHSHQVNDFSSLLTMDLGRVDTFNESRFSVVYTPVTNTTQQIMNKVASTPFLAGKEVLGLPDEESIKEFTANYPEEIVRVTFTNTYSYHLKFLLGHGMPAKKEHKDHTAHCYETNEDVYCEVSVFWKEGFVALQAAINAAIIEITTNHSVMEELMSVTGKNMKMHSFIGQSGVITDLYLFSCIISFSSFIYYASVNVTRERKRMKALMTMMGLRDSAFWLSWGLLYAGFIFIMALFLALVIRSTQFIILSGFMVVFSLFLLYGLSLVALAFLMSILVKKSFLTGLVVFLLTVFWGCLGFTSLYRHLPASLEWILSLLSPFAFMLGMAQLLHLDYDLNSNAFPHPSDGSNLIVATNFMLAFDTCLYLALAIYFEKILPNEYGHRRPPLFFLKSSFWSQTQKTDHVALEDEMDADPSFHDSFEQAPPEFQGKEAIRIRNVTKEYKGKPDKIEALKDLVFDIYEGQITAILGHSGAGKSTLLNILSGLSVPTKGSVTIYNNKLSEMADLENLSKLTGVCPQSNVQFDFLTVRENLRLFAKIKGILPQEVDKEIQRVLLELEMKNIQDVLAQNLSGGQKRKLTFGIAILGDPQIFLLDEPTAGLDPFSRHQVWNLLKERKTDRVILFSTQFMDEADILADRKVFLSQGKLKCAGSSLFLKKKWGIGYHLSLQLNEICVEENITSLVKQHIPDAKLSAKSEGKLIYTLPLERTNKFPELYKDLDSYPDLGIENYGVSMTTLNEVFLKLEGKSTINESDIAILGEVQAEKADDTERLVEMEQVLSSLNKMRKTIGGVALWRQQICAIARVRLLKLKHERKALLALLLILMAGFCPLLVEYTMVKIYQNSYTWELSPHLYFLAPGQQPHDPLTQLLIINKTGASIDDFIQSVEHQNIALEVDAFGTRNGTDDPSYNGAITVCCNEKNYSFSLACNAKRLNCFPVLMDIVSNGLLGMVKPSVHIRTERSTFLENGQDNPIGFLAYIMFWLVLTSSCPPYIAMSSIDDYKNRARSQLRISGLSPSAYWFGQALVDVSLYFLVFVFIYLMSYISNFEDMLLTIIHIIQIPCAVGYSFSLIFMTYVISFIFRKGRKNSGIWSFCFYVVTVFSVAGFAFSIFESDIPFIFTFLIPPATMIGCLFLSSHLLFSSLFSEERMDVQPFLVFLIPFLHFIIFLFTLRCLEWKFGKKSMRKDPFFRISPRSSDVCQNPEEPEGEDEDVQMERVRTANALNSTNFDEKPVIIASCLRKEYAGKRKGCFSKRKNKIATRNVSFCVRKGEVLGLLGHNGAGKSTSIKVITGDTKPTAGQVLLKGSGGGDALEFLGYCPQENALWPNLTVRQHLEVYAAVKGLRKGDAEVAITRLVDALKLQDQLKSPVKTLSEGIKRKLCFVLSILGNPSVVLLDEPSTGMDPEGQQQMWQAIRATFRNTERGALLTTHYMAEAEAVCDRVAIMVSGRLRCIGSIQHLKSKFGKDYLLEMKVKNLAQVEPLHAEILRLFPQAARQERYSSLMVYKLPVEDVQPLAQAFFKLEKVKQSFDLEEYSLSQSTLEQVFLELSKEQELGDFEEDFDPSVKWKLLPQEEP

The targets below were run with C1CCN(C1)C(=O)NC2=CC=CC(=C2)NC3=NC=C(C(=N3)NCCC4=CN=CN4)Br (assay: log2 fold change, soluble protein after heating vs DMSO (PISA); higher = thermal stabilisation; K562 cells, 10 uM, 30 min; active = over 0.2 and 3.5 SD of the protein, either way, in both replicates (recomputed)).
Outline: (§1)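 K562 cells (2×10^6 cells/mL) were treated with 10 μM compound for 30 min, and aliquots were heated for 3 min over 48°C-58°C. Pooled aliquots were extracted in PBS with 0.5% NP-40 at 4°C, and the supernatant after 21,000xg for 90 min was measured by TMTpro 16plex LC-MS/MS with channel sums equalised. Reported thermal stability, relative to control samples and from duplicates, is a log2 fold change.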

log2 fold change, inactive:
ACTB, A0A2R8YEA7 -0.203
ACTR3B (UniProt Q9P1U1) -0.012
ADAD1 (UniProt Q96M93) 0.094
A2ML1 (UniProt A8K2U0) -0.443
ABCB1 (UniProt P08183) 0.008
ACTG1 (UniProt K7EM38) 0.106
ACOX1 isoform 3 (UniProt Q15067) 0.198
ACCS (UniProt Q96QU6) -0.229
ABCB4 (UniProt P21439) -0.071
ADCK1 (UniProt Q86TW2) 0.047
ABCB11 (UniProt O95342) 0.086
ABHD5 (UniProt Q8WTS1) -0.179
ABHD6 (UniProt Q9BV23) -0.25
ACAT1, A0A5F9ZHJ0 -0.034
ACYP2 (UniProt P14621) -0.072
ABL2 (UniProt P42684) -0.095
ACSL6 isoform 1 (UniProt Q9UKU0) -0.03
ABITRAM (UniProt Q9NX38) -0.037
ABCF1 (UniProt Q5STZ8) -0.061
AASDH (UniProt Q4L235) -0.058
ABCA8 isoform 3 (UniProt O94911) 0.217

These targets were tested with C1CN(CCC1(CC2=CC=C(C=C2)Cl)N)C3=NC=NC4=C3C=CN4 in the same assay as above.
Outline: as §1

log2 fold change, inactive:
ACTB, A0A2R8YEA7 0.209
ACTR3B (UniProt Q9P1U1) 0.145
ADAD1 (UniProt Q96M93) -0.025
A2ML1 (UniProt A8K2U0) -0.688
ABCB1 (UniProt P08183) -0.005
ACTG1 (UniProt K7EM38) -0.204
ACOX1 isoform 3 (UniProt Q15067) 0.063
ACCS (UniProt Q96QU6) 0.096
ABCB4 (UniProt P21439) 0.066
ADCK1 (UniProt Q86TW2) 0.011
ABCB11 (UniProt O95342) 0.086
ABHD5 (UniProt Q8WTS1) 0.043
ABHD6 (UniProt Q9BV23) -0.22
ACAT1, A0A5F9ZHJ0 0.057
ACYP2 (UniProt P14621) 0.204
ABL2 (UniProt P42684) -0.176
ACSL6 isoform 1 (UniProt Q9UKU0) 0.04
ABITRAM (UniProt Q9NX38) 0.018
ABCF1 (UniProt Q5STZ8) 0.001
AASDH (UniProt Q4L235) 0.034
ABCA8 isoform 3 (UniProt O94911) 0.162
